These are yes or no findings as the source states them, for the method shown. Binding seen in cells or lysates may run through a third protein. Some entries that bind do so weakly or less than the wild type. For some assays here: Where a sequence is shown, tags or fusion partners need not be part of it. Blank lines part the entries; values can stand above or below the molecule they belong to.
Columns and labels:
[1] = biological target: T1, endogenous WOX1 (SK-N-SH neuroblastoma cells) (human (endogenous in SK-N-SH)) (UniProt Q9NZC7); assay: co-IP; human SK-N-SH cell lysates, precleared with protein A agarose, immunoprecipitated with anti-WOX1 IgG and protein A agarose, Western blotting; cells exposed to ischemic conditions (1% oxygen and low glucose) for 2 hours by the methods; data not shown
T1 sequence: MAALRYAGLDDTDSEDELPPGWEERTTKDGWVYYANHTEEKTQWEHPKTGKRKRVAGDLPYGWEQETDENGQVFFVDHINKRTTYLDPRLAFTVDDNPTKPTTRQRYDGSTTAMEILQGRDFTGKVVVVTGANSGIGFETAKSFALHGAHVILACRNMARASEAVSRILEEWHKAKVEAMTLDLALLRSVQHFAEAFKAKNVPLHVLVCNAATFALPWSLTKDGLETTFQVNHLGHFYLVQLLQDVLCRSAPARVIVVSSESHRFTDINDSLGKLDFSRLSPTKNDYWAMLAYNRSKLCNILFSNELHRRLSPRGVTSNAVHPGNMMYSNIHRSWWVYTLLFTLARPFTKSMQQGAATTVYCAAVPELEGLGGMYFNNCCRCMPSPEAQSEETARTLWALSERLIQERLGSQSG

Amino acid sequences for entries named in this document (tags omitted).
UniProt P15337: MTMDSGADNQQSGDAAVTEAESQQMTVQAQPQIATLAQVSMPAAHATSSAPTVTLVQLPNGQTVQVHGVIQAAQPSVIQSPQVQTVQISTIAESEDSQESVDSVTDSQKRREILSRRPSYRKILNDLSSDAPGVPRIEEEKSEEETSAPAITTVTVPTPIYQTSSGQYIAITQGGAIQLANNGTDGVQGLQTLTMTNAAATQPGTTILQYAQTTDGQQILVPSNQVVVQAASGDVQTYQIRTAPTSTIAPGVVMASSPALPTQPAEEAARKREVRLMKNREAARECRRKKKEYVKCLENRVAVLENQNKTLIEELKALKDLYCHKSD
UniProt P16220: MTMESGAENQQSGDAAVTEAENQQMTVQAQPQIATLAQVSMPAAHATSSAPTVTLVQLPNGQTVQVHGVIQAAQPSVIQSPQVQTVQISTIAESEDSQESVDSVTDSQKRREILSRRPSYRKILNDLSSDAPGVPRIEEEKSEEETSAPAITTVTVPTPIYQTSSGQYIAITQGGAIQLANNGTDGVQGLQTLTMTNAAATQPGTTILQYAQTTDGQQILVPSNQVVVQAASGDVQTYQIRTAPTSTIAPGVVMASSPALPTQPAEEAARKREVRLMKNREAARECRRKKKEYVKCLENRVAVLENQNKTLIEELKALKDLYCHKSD
UniProt P05412: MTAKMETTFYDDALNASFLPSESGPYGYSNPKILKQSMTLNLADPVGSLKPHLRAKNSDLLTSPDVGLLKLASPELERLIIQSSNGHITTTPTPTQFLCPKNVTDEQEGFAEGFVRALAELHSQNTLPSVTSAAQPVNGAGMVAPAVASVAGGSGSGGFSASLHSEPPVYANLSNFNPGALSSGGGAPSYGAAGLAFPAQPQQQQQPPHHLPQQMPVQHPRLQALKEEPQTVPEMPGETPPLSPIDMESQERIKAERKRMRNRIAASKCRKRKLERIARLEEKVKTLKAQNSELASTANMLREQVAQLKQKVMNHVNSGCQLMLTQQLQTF

[2] = biological target: CREB-EGFP (rat CREB in frame with EGFP) (rat) (UniProt P15337); assay: FRET or BRET; primary rat DRG neurons co-transfected with DsRed and EGFP fusions, cultured 24-48 hr; EGFP donor, DsRed2 acceptor; excitation 455 nm, emission 600 nm; spectrally corrected FRETc; with or without deferoxamine (DFO, 500 µM, 2 hours)
ECFP-CREB = ECFP-CREB (UniProt P15337); assay: FRET or BRET; parallel FRET with ECFP and EYFP fusions (ECFP-WOX1 with EYFP-CREB, or ECFP-CREB with EYFP-WOX1); data not shown
EYFP-CREB = EYFP-CREB (UniProt P15337); assay: as above

Molecule: endogenous p-CREB (SK-N-SH neuroblastoma cells) (from UniProt P16220 1-327)
binding [1]: binds

B1: WOX1-DsRed (full-length murine WOX1 in frame with DsRed) (protein, UniProt Q91WL8 1-414)
chain: MAALRYAGLDDTDSEDELPPGWEERTTKDGWVYYANHTEEKTQWEHPKTGKRKRVAGDLPYGWEQETDENGQVFFVDHINKRTTYLDPRLAFTVDDNPTKPTTRQRYDGSTTAMEILQGRDFTGKVVLVTGANSGIGFETAKSFALHGAHVILACRNLSRASEAVSRILEEWHKAKVEAMTLDLAVLRSVQHFAEAFKAKNVSLHVLVCNAGTFALPWGLTKDGLETTFQVNHLGHFYLVQLLQDVLCRSSPARVIVVSSESHRFTDINDSSGKLDLSRLSPPRSDYWAMLAYNRSKLCNILFSNELHRRLSPRGVTSNAVHPGNMMYSAIHRNSWVYKLLFTLARPFTKSMQQGAATTVYCAVAPELEGLGGMYFNNCCRCLPSEEAQSEETARALWELSERLIQDRLGSPSS
binding [2]: binds

B2: EYFP-WOX1 (protein, UniProt Q91WL8 1-414)
chain: B1 chain
binding (ECFP-CREB): binds

Results, then the molecule that gave them:

binding [1]: binds
Molecule: endogenous c-Jun (SK-N-SH neuroblastoma cells) (from UniProt P05412 1-331)

binding (EYFP-CREB): binds
B3: ECFP-WOX1 (protein, UniProt Q91WL8 1-414)
chain: B1 chain

Reference: article PMC2771921
